Experimental data as given in US11666517B2, “Antimicrobial composition” (Firmenich SA, priority 2016, dated 2023).
At least one read-out could not be matched to a standard name with certainty.

Key:
E. coli DSMZ 1103 = experiment: Fractional Inhibitory Concentration Index (FIC) / MIC, 96-well broth dilution of ingredient combinations; type: cell-based, Escherichia coli; details: ingredient used in isolation, other ingredient 0 ppm; 37° C., 24 hours
Protocol: (§1) The method below allows evaluating antimicrobial activity of different raw materials in combination. The Fractional Inhibitory Concentration Index (FIC Index) is a measure of activity (Garcia L. S., Clinical Microbiology Procedures Handbook, pg. 140-162, 3rd Edition (2010), ASM Press, Washington D.C.) and is calculated according to the formula below:
(§2) [formula] where (MICA alone) and (MICB alone) are the Minimal Inhibitory Concentrations (MIC) of individual ingredients A and B when used in isolation, respectively; whereas (MICA combination) and (MICB combination) are the Minimal Inhibitory Concentrations of materials A and B when tested in combination. […]
(§3) Bacterial suspensions of E. coli DSMZ 1103 and S. aureus DSMZ 1104 were prepared as follows: a frozen stock aliquot was streaked on a Tryptic Soy Agar plate, which was then incubated at 37° C. for 24 hours. […] Growth at 37° C. was continued as described above until the absorbance measured at 600 nm reached 0.7-0.9 and 0.3-0.45 for S. aureus and E. coli, respectively. […]
(§4) Then, 90 μl of cell suspension as prepared above were added to each well of the microtiter plate, with the exception of column 12 which received 90 μl of Mueller Hinton Broth. […] After incubation, plate reading was performed visually by recording wells with visible bacterial growth. […]

S. aureus DSMZ 1104 = experiment: as above; type: cell-based, Staphylococcus aureus; details: ingredient used in isolation, other ingredient 0 ppm; 37° C., 24 hours
Protocol: as §1, §2, §3, §4

SMILES	Concentration of ingredient alone (Minimal Inhibitory Concentration, MIC alone) (E. coli DSMZ 1103)	Concentration of ingredient alone (Minimal Inhibitory Concentration, MIC alone) (S. aureus DSMZ 1104)
Cc1ccc(C(C)C)c(O)c1 [2-isopropyl-5-methylphenol]	800 ppm	
CCCC(=NO)C(C)C [2-methylhexan-3-one oxime]		3200 ppm
CC(C)(C)Cc1cccnc1 [3-neopentylpyridine]	800 ppm	
CC1=CCC(C(C)(C)O)CC1 (stereo not drawn) [α-terpineol]		1600 ppm
